Results are given in words; binding and its absence hold for the method and conditions named. Some entries that bind do so weakly or less than the wild type. Each block holds one binder with its values, some of them ahead of it.
Columns and labels:
human IFNγ (human) [1] = target: human IFNγ (human) (UniProt P01579); test: ELISA, hIFNγ coated, protein A purified antibody
human IFNγ (human) [2] = target: human IFNγ (human) (UniProt P01579); test: ELISA, hIFNγ coated, crude COS supernatant
human IFNγ (human) [3] = target: human IFNγ (human) (UniProt P01579); test: SPR, B1 chip, IFNγ captured via immobilized murine D9D10, crude COS supernatant injected
human IFNγ (human) [4] = target: human IFNγ (human) (UniProt P01579); test: SPR, B1 chip coated with murine D9D10 onto which IFNγ was injected, periplasmic fraction
human IFNγ (human) [5] = target: human IFNγ (human) (UniProt P01579); test: SPR (BIACORE), IFNγ captured via immobilized murine D9D10
human IFNγ (human) [6] = target: human IFNγ (human) (UniProt P01579); test: SPR, B1 chip coated with murine D9D10 onto which IFNγ was injected, undiluted periplasmic fraction
human IFNγ (human) [7] = target: human IFNγ (human) (UniProt P01579); test: ELISA, recombinant human IFNγ coated, E. coli periplasmic fractions, detection with rabbit anti-D9D10 scFv serum

By UniProt entry, the sequences of proteins in these tests, tags left out. Residues count along the entry.
UniProt P01579, residues 24-166: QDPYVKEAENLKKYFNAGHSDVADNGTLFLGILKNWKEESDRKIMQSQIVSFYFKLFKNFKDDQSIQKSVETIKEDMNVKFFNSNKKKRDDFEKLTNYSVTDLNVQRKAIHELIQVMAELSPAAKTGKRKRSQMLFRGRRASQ

binding (human IFNγ (human) [1]): binds | binding (human IFNγ (human) [2]): binds | binding (human IFNγ (human) [3]): binds
B1: humanized D9D10 whole antibody (antibody, human IgG1, kappa, V domains shown)
VH: QVQLVQSGSELKKPGASVKISCKASGYTFTDYGMNWVKQAPGQGLKWMGWINTYTGESTYVDDFKGRFVFSLDTSVSAAYLQISSLKAEDTATYFCARRGFYAMDYWGQGTTVTVSS
VL: DIELTQSPATMSASPGERVTLTCSASSSISYMFWYHQRPGQSPRLLIYDTSNLASGVPARFSGSGSGTSYSLTISRMEPEDFATYFCHQSSSYPFTFGQGTKLEIKR

binding (human IFNγ (human) [4]): binds
B2: humanized L0 D9D10 triabody (protein)
chain: QVQLVQSGSELKKPGASVKISCKASGYTFTDYGMNWVKQAPGQGLKWMGWINTYTGESTYVDDFKGRFVFSLDTSVSAAYLQISSLKAEDTATYFCARRGFYAMDYWGQGTTVTVSSDIVLTQSPATMSASPGERVTLTCSASSSISYMFWYHQRPGQSPRLLIYDTSNLASGVPARFSGSGSGTSYSLTISRMEPEDFATYFCHQSSSYPFTFGQGTKLEIKRHHHHHH

binding (human IFNγ (human) [5]): binds
B3: humanized scFvD9D10 (scFv)
scFv: QVQLVQSGSELKKPGASVKISCKASGYTFTDYGMNWVKQAPGQGLKWMGWINTYTGESTYVDDFKGRFVFSLDTSVSAAYLQISSLKAEDTATYFCARRGFYAMDYWGQGTTVTVSSGGGGSGGGGSGGGGSDIVLTQSPATMSASPGERVTLTCSASSSISYMFWYHQRPGQSPRLLIYDTSNLASGVPARFSGSGSGTSYSLTISRMEPEDFATYFCHQSSSYPFTFGQGTKLEIKRHHHHHH

binding (human IFNγ (human) [6]): binds
B4: L10 D9D10 diabody (protein)
chain: QVQLVQSGSELKKPGASVKISCKASGYTFTDYGMNWVKQAPGQGLKWMGWINTYTGESTYVDDFKGRFVFSLDTSVSAAYLQISSLKAEDTATYFCARRGFYAMDYWGQGTTVTVSSGGGGSGGGGSDIVLTQSPATMSASPGERVTLTCSASSSISYMFWYHQRPGQSPRLLIYDTSNLASGVPARFSGSGSGTSYSLTISRMEPEDFATYFCHQSSSYPFTFGQGTKLEIKRHHHHHH

binding (human IFNγ (human) [6]): binds
B5: humanized L5 D9D10 diabody (protein)
chain: QVQLVQSGSELKKPGASVKISCKASGYTFTDYGMNWVKQAPGQGLKWMGWINTYTGESTYVDDFKGRFVFSLDTSVSAAYLQISSLKAEDTATYFCARRGFYAMDYWGQGTTVTVSSGGGGSDIVLTQSPATMSASPGERVTLTCSASSSISYMFWYHQRPGQSPRLLIYDTSNLASGVPARFSGSGSGTSYSLTISRMEPEDFATYFCHQSSSYPFTFGQGTKLEIKRHHHHHH

binding (human IFNγ (human) [7]): binds
B6: MoTAbI (protein)
chain: QVQLVQSGSELKKPGASVKISCKASGYTFTDYGMNWVKQAPGQGLKWMGWINTYTGESTYVDDFKGRFVFSLDTSVSAAYLQISSLKAEDTATYFCARRGFYAMDYWGQGTTVTVSSGGGGSGGGGSGGGGSDIVLTQSPATMSASPGERVTLTCSASSSISYMFWYHQRPGQSPRLLIYDTSNLASGVPARFSGSGSGTSYSLTISRMEPEDFATYFCHQSSSYPFTFGQGTKLEIKRTPLGDTTHTSGGELEELLKHLKELLKGPRKGELEELLKHLKELLKGTPLGDTTHTSGQVQLVQSGSELKKPGASVKISCKASGYTFTDYGMNWVKQAPGQGLKWMGWINTYTGESTYVDDFKGRFVFSLDTSVSAAYLQISSLKAEDTATYFCARRGFYAMDYWGQGTTVTVSSGGGGSGGGGSGGGGSDIVLTQSPATMSASPGERVTLTCSASSSISYMFWYHQRPGQSPRLLIYDTSNLASGVPARFSGSGSGTSYSLTISRMEPEDFATYFCHQSSSYPFTFGQGTKLEIKRHHHHHH

Reference: patent US20050129693A1
